Record: PubChem BioAssay AID743454 (Peter MacCallum Cancer Centre, 2014)
Test: 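Knock-downs lowering viability or raising caspase 3/7 activity in vorinostat-treated resistant cells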 (primary screen). Cells: human HCT116-VR colon cancer cells, selected for vorinostat resistance. Reagents: siRNA pool against human genes, 40 nM siRNA pool. Duration: vorinostat for 24 h, read-out about 72 h after transfection. Conditions: vorinostat at 2.5 µM final. Detection: 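Two measures, CellTiter-Fluor viability and luminescent caspase 3/7 activity, each as fold change against same-plate mock wells, mean of duplicates, then screen-wide robust z-score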. Direction: viability robust z-score: higher = more viable cells than screen typical; caspase robust z-score: higher = more caspase 3/7 activity than screen typical. Hit rule: 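a knock-down is a hit when classed RV1 or RV2 for lowered viability, or CA1 or CA2 for caspase activation; those lethal without drug were dropped; hits were retested singly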.
In all, the deposit lists about 18,000 reagents; shown is a part drawn at random. In the full data, 450 (2.5%) were called active. 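Single biological run; no consistent viability z cut-off exists, so the class columns, not z-scores, define the calls.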 A number with no mark means an inactive call. No sequences are given here.

no.	gene	viability hit class	caspase hit class	viability robust z-score	caspase robust z-score
1	ADAMTSL3	no change	no change	-0.36	0.01
2	ASTL	no change	no change	-0.12	-0.41
3	FSAF1	no change	no change	-1.32	0.84
4	NRSN1	no change	no change	0.67	-0.88
5	SNAI2	no change	no change	0.48	-0.78
6	C1orf105	no change	no change	-0.18	-0.22
7	POU4F2	no change	no change	-0.58	-0.15
8	SDE2	no change	no change	-1.29	-0.64
9	MIR99AHG	no change	no change	0.44	-0.48
10	TUBGCP4	no change	no change	-0.64	1.4
11	SF3A2	no change	no change	-1.92	-0.23
12	CMSS1	no change	no change	-0.48	0.03
13	CCDC149	no change	no change	0.4	0.25
14	TJP2	no change	no change	1.55	0.31
15	FAM153A	no change	no change	-1.34	-1.67
16	ANAPC4	no change	no change	0.12	2.19
17	CATIP	no change	no change	-0.12	-0.94
18	IL6R	no change	no change	1.49	0.9
19	CLECL1	no change	no change	-0.2	-0.51
20	PCGF5	no change	no change	0.37	-0.71
21	CFAP161	no change	no change	-0.93	-0.31
22	XXYLT1	no change	no change	0.88	-0.61
23	HSH2D	no change	no change	-0.66	-0.93

Sorted by “caspase robust z-score” (descending): 3 of the entries above.
gene	viability hit class	caspase hit class	viability robust z-score	caspase robust z-score
FSAF1	no change	no change	-1.32	0.84
SNAI2	no change	no change	0.48	-0.78
NRSN1	no change	no change	0.67	-0.88

More entries follow:
no.	gene	viability hit class	caspase hit class	viability robust z-score	caspase robust z-score
24	SDHA	no change	no change	-0.16	-0.09
25	BCOR	no change	no change	0.82	0.34
26	ANKRD13A	no change	no change	-0.83	-0.12
27	CRK	no change	no change	-0.38	-0.6
28	THY1	no change	no change	-0.03	0.02
29	WASHC4	no change	no change	-2.38	2.88
30	R3HDM4	no change	no change	0.02	1.48
31	TTF1	no change	no change	0.12	-0.05
32	TAF1B	no change	no change	-1.18	3.88
33	MTARC2	no change	no change	0.2	-0.91
34	ERAP2	no change	no change	0.4	-0.55
35	TMPPE	no change	no change	0.08	0.4
36	PLEKHA6	no change	no change	-0.31	-0.18
37	NME8	no change	no change	2.42	-0.61
38	GFM2	no change	no change	1.23	1.23
39	TMEM268	no change	no change	-0.59	-0.93
